From US20240400983A1, “CELL AGGREGATE INCLUDING PITUITARY HORMONE-PRODUCING CELLS AND METHOD FOR PRODUCING SAME” (Sumitomo Pharma Co., Ltd., priority 2021, published 2024)
At least one structure is not confirmed: it was looked up by name or label, or the drawing left a doubt.

Key:
[1] = tested on: reaggregated EpCAM-positive cells; test: Immunostaining of GH- and ACTH-positive cells after dexamethasone (DX) addition during long period culture after EpCAM purification; format: cell-based, human
hypopituitary mice = test: Transplantation of EpCAM-positive cell reaggregates under the kidney capsule of hypopituitary mice; blood ACTH with CRH, dexamethasone or LPS stimulation; format: in vivo, mouse
[2] = tested on: EpCAM-positive cell aggregates; test: ACTH and GH secretion amounts in culture supernatant over time (ELISA); format: cell-based, human
[3] = day 63 sort+day 40, DX 400 ng/mL for 3, 7, 14 days

C[C@@H]1C[C@H]2[C@@H]3CCC4=CC(=O)C=C[C@]4(C)[C@@]3(F)[C@@H](O)C[C@]2(C)[C@@]1(O)C(=O)CO [dexamethasone]
number of GH-positive cells under culture conditions where DX was added ([1]; DX 400 ng/mL day 3 to 24, day 62 sort+day 41 and day 100 sort+day 31): further increases | number of ACTH-positive cells as the DX addition period became longer [1, 3]: decreased | number of GH-positive cells as the DX addition period became longer [1, 3]: increased | blood ACTH concentration after dexamethasone administration in transplantation group (hypopituitary mice; 0.2 mg intramuscularly, 6 weeks after transplantation, blood 2 hr after): significantly decreased | blood ACTH concentration when CRH was administered after dexamethasone administration (hypopituitary mice; CRH 2 pg/kg i.p. 2 hr after dexamethasone, blood 1 hr after CRH): remained almost completely suppressed | GH secretion amount by culturing with DX added after purification ([2]; day 62 sort): increased | secretion amount of ACTH versus DX addition period ([2]; day 63 sort+day 40): decreased in a manner dependent on the DX addition period | secretion amount of GH versus DX addition period ([2]; day 63 sort+day 40): increased | amount of GH secreted by adding DX and culturing after purification ([2]; day 100 sort): increased over time
